# Results are given in words; binding and its absence hold for the method and conditions named. In cells and extracts the contact can be indirect. Binding can be weak; no strength is given.
# Amino acid sequences for entries named in this document (tags omitted). A change or cut given only in a name is not applied to a line headed by its entry.
# UniProt Q7Z2W4: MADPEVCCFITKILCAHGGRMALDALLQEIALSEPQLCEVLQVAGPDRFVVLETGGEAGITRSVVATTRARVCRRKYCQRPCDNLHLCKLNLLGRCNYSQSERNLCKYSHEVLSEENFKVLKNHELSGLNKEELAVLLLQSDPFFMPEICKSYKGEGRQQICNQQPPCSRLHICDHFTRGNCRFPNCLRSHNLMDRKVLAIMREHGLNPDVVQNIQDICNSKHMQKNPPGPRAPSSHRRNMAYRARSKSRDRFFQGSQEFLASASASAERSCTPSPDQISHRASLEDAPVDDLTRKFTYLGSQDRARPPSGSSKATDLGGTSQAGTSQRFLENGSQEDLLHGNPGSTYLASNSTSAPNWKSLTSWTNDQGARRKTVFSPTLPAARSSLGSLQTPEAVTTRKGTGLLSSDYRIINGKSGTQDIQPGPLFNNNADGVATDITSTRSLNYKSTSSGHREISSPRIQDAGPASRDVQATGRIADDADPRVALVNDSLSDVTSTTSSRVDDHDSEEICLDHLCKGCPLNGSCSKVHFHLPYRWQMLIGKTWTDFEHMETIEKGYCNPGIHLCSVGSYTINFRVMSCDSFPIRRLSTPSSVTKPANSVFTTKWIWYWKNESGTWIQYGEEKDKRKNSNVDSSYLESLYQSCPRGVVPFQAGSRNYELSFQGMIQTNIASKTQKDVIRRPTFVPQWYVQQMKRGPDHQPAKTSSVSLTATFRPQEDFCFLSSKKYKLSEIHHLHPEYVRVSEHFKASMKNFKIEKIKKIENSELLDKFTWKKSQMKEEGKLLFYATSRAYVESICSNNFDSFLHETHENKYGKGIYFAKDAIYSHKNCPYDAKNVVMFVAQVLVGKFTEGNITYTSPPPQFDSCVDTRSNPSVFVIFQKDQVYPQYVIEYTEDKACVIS
# B1: OASL (protein, UniProt Q15646 1-514)
# chain: MALMQELYSTPASRLDSFVAQWLQPHREWKEEVLDAVRTVEEFLRQEHFQGKRGLDQDVRVLKVVKVGSFGNGTVLRSTREVELVAFLSCFHSFQEAAKHHKDVLRLIWKTMWQSQDLLDLGLEDLRMEQRVPDALVFTIQTRGTAEPITVTIVPAYRALGPSLPNSQPPPEVYVSLIKACGGPGNFCPSFSELQRNFVKHRPTKLKSLLRLVKHWYQQYVKARSPRANLPPLYALELLTIYAWEMGTEEDENFMLDEGFTTVMDLLLEYEVICIYWTKYYTLHNAIIEDCVRKQLKKERPIILDPADPTLNVAEGYRWDIVAQRASQCLKQDCCYDNRENPISSWNVKRARDIHLTVEQRGYPDFNLIVNPYEPIRKVKEKIRRTRGYSGLQRLSFQVPGSERQLLSSRCSLAKYGIFSHTHIYLLETIPSEIQVFVKNPDGGSYAYAINPNSFILGLKQQIEDQQGLPKKQQQLEFQGQVLQDWLGLGIYGIQDSDTLILSKKKGEALFPAS
# Target: ZAP-S qMut (human) (UniProt Q7Z2W4)
# Assay: co-IP; HEK293T ZAP-/- TRIM25-/- co-transfected, 48 h; ZAP precipitated from lysates (ZAP-L-FLAG with anti-FLAG; antibody for ZAP-S not stated); buffers as in the co-IP methods; western blot
binder,measurement,value
B1,binding,binds
